Measured values reported in the supplement of paper PMC6411743.
± gives the standard deviation of the averaged measurements. The list shows a part of the results.

Chains of the proteins cited; added tags and fusions are not shown. Lines headed by an entry give the natural chain unless they say otherwise; changes in a name come on top.
UniProt P60228, whole entry: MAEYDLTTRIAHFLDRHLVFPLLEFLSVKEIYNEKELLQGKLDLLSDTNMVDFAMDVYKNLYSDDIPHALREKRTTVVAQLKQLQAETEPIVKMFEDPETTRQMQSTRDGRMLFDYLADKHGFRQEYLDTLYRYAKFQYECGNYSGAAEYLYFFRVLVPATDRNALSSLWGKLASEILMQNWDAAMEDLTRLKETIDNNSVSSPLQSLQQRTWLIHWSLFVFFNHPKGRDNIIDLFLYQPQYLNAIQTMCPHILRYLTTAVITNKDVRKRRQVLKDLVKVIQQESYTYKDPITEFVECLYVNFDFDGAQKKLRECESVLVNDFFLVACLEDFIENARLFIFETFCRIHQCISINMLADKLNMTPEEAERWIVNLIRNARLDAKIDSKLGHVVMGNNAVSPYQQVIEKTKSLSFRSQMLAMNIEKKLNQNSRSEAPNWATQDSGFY
UniProt P51798: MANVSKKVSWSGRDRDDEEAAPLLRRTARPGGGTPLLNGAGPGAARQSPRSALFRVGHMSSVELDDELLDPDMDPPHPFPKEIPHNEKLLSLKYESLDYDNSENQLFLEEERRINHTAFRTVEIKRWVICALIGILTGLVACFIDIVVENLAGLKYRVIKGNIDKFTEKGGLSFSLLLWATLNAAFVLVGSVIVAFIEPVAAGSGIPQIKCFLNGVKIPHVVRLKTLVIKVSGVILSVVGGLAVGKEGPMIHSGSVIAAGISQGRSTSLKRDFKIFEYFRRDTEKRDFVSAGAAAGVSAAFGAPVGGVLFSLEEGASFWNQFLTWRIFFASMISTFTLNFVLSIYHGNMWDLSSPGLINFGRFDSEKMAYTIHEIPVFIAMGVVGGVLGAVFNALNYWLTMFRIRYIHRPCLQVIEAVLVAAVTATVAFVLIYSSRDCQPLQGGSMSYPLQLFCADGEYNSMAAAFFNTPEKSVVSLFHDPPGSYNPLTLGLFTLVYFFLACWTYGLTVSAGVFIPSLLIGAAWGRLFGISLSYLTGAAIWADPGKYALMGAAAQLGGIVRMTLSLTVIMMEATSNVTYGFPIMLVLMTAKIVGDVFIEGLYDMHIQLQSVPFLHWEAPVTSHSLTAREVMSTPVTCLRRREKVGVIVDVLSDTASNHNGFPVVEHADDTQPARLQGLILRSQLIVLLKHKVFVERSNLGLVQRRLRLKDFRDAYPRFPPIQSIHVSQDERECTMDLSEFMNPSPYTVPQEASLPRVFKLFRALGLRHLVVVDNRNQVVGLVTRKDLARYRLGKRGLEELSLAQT
UniProt P60842, whole entry: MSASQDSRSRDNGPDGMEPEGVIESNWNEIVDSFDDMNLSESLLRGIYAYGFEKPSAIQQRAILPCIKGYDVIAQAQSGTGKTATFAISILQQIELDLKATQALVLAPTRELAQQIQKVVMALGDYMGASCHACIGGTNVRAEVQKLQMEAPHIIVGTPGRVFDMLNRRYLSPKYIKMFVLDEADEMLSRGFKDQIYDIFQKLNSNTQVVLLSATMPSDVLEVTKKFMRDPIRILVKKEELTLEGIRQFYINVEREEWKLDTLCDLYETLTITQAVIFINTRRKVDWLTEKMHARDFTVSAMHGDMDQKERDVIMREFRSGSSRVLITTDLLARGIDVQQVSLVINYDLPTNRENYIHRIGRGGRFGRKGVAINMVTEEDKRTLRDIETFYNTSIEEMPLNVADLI
UniProt P50452: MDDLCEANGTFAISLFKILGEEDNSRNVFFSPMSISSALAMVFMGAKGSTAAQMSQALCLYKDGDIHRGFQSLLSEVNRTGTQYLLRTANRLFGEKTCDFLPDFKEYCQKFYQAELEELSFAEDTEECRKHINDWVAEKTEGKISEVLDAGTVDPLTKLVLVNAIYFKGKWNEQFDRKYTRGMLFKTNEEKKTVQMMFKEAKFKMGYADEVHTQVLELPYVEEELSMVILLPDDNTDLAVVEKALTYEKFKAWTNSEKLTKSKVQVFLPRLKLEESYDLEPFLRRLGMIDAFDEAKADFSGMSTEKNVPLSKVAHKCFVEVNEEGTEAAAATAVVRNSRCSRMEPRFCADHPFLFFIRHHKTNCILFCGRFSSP

Compound: Nc1nc2c(ncn2[C@@H]2O[C@H](COP(=O)(O)OP(=O)(O)OP(=O)(O)O)[C@@H](O)[C@H]2O)c(=O)[nH]1 [guanosine triphosphate]
Experiment: NP40-soluble protein abundance relative to vehicle (solubility fold change) (ratio); higher = more soluble protein in presence of GTP
Description: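 Solubility proteome profiling in Jurkat crude lysate. Lysate was treated with Mg-GTP (0.1-10 mM) for 10 min at room temperature and 3 min at 37 °C, then solubilised with 0.8% NP40 and benzonase, followed by ultracentrifugation. Proteins were quantified by TMT10 LC-MS/MS; the value is the NP40-soluble abundance relative to the NP40-processed vehicle, from 3 independent experiments.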

| Target | NP40-soluble protein abundance (concentration: 0.1mM) | NP40-soluble protein abundance (concentration: 0.5mM) | NP40-soluble protein abundance (concentration: 1mM) | NP40-soluble protein abundance (concentration: 2mM) | NP40-soluble protein abundance (concentration: 4mM) | NP40-soluble protein abundance (concentration: 6mM) | NP40-soluble protein abundance (concentration: 8mM) | NP40-soluble protein abundance (concentration: 10mM) |
| --- | --- | --- | --- | --- | --- | --- | --- | --- |
| UniProt P60228 | 1.09 ± 0.046 | 1.08 ± 0.061 | 1.05 ± 0.098 | 1.14 ± 0.17 | 1.32 ± 0.27 | 1.44 ± 0.33 | 1.58 ± 0.3 | 1.75 ± 0.38 |
| UniProt P51798 and related entries | 1.05 ± 0.039 | 1.02 ± 0.036 | 1.02 ± 0.036 | 0.988 ± 0.05 | 0.952 ± 0.068 | 1.02 ± 0.042 | 0.992 ± 0.071 | 0.925 ± 0.03 |
| UniProt P63272 | 0.953 ± 0.047 | 0.975 ± 0.044 | 0.97 ± 0.014 | 0.97 ± 0.012 | 0.955 ± 0.028 | 0.95 ± 0.021 | 0.919 ± 0.058 | 0.937 ± 0.0094 |
| UniProt P60842 | 0.933 ± 0.094 | 0.973 ± 0.13 | 0.874 ± 0.1 | 0.899 ± 0.11 | 0.922 ± 0.13 | 0.891 ± 0.14 | 0.864 ± 0.11 | 0.859 ± 0.077 |
| SERPINB8 (UniProt P50452) | 0.997 ± 0.033 | 0.991 ± 0.029 | 0.93 ± 0.025 | 0.909 ± 0.025 | 0.892 ± 0.053 | 0.897 ± 0.03 | 0.856 ± 0.033 | 0.843 ± 0.066 |
